# Where a name gives a salt, the structure may show the parent alone. This is one part of the list. Single values are uncertain here, since repeats match poorly.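 Cells: ReNCell VM human fetal ventral-midbrain neural progenitors, differentiated mitogen-free. Blinded raters compared doublecortin-stained (early neurons) or tyrosine hydroxylase-stained (dopaminergic neurons) images with untreated wells, where 0 means no change. After repeats and both raters were averaged, compounds scoring 2 or above became hits for retesting.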
# Assays:
# ReNCell VM [1] = experiment: neuronal differentiation score (DCX+ cell fraction vs untreated, manual image score) (score (-3 to 3)); higher = more neuronal differentiation; settings: 2 uM, 2 weeks
# ReNCell VM [2] = experiment: dopaminergic neuron differentiation score (TH+ cell fraction vs untreated, manual image score) (score (0 to 3)); higher = more TH+ dopaminergic neuron differentiation; settings: 2 uM, 4 weeks, BDNF 10 ng/ml + GDNF 10 ng/ml
smiles,measurement,setting,value
CCCCCCCCCCCCCCCC[n+]1ccccc1,neuronal differentiation score,ReNCell VM [1]; library: Spectrum,inactive: 0
same,dopaminergic neuron differentiation score,ReNCell VM [2]; library: Spectrum,inactive: 0
Cn1cc(C(=O)C(=O)N[C@H]2CN3CCC2CC3)c2ccccc21,neuronal differentiation score,ReNCell VM [1]; library: Tocriscreen,inactive: 0
same,dopaminergic neuron differentiation score,ReNCell VM [2]; library: Tocriscreen,inactive: 0
CN1CC[C@@]2(C)c3cc(O)ccc3N(C)C12 (stereo partly drawn),neuronal differentiation score,ReNCell VM [1]; library: Spectrum,inactive: 0
same,dopaminergic neuron differentiation score,ReNCell VM [2]; library: Spectrum,inactive: 0
Cc1nc(-c2ccc(-c3ccc(C(=O)N4CCc5cc6c(cc54)C4(CCN(C)CC4)CO6)cc3)c(C)c2)no1,neuronal differentiation score,ReNCell VM [1]; library: LOPAC,inactive: 0
same,dopaminergic neuron differentiation score,ReNCell VM [2]; library: LOPAC,inactive: 0
NC(=O)c1cc(N2CC2)c([N+](=O)[O-])cc1[N+](=O)[O-],neuronal differentiation score,ReNCell VM [1]; library: LOPAC,inactive: 0
same,dopaminergic neuron differentiation score,ReNCell VM [2]; library: LOPAC,inactive: 0
C[C@H](Cc1ccc(OCC(=O)O)cc1)NC[C@H](O)c1cccc(Cl)c1,neuronal differentiation score,ReNCell VM [1]; library: Tocriscreen,inactive: 0
same,dopaminergic neuron differentiation score,ReNCell VM [2]; library: Tocriscreen,inactive: 0
CNC(=O)Oc1ccc2c(c1)[C@]1(C)CCN(C)[C@@H]1N2C,neuronal differentiation score,ReNCell VM [1]; library: Spectrum,inactive: 0
same,dopaminergic neuron differentiation score,ReNCell VM [2]; library: Spectrum,inactive: 0
C=C(C)CN1CC[C@@]23c4c5ccc(O)c4O[C@H]2c2[nH]c4ccccc4c2C[C@]3(O)C1C5 [SDM25N hydrochloride],neuronal differentiation score,ReNCell VM [1]; library: Tocriscreen,inactive: 0
same,dopaminergic neuron differentiation score,ReNCell VM [2]; library: Tocriscreen,inactive: 0
COc1ccccc1N1CCNCC1 [1-(2-Methoxyphenyl)piperazine hydrochloride],neuronal differentiation score,ReNCell VM [1]; library: LOPAC,inactive: 0
same,dopaminergic neuron differentiation score,ReNCell VM [2]; library: LOPAC,inactive: 1
CNCCc1c[nH]c2ccc(O)cc12 [N-omega-Methyl-5-hydroxytryptamine oxalate salt],neuronal differentiation score,ReNCell VM [1]; library: LOPAC,inactive: 0
same,dopaminergic neuron differentiation score,ReNCell VM [2]; library: LOPAC,inactive: 0
Cc1nccc2c1[nH]c1ccccc12 [Harmane hydrochloride],neuronal differentiation score,ReNCell VM [1]; library: Phytochemical,inactive: 0
same,dopaminergic neuron differentiation score,ReNCell VM [2]; library: Phytochemical,inactive: 0
COc1cc(OC)c(OC)cc1C=O,neuronal differentiation score,ReNCell VM [1]; library: Spectrum,inactive: 0
same,dopaminergic neuron differentiation score,ReNCell VM [2]; library: Spectrum,inactive: 0
N#C[C@H](O[C@@H]1O[C@H](CO[C@@H]2O[C@H](CO)[C@@H](O)[C@H](O)[C@H]2O)[C@@H](O)[C@H](O)[C@H]1O)c1ccccc1 [Amygdalin],neuronal differentiation score,ReNCell VM [1]; library: Phytochemical,inactive: 0
same,dopaminergic neuron differentiation score,ReNCell VM [2]; library: Phytochemical,inactive: 0
CC(=O)O[C@H]1C[C@H](O[C@H]2[C@@H](O)C[C@H](O[C@H]3[C@@H](O)C[C@H](O[C@H]4CC[C@@]5(C)[C@H](CC[C@@H]6[C@@H]5C[C@@H](O)[C@]5(C)[C@@H](C7=CC(=O)OC7)CC[C@]65O)C4)O[C@@H]3C)O[C@@H]2C)O[C@H](C)[C@H]1O[C@@H]1O[C@H](CO)[C@@H](O)[C@H](O)[C@H]1O [Lanatoside C],neuronal differentiation score,ReNCell VM [1]; library: Prestwick,inactive: 0
same,dopaminergic neuron differentiation score,ReNCell VM [2]; library: Prestwick,inactive: 0

# A different layout for part of the listing above:
smiles	measurement	setting	value
COc1ccccc1N1CCNCC1 [1-(2-Methoxyphenyl)piperazine hydrochloride]	neuronal differentiation score	ReNCell VM [1]; library: LOPAC	inactive: 0
same	dopaminergic neuron differentiation score	ReNCell VM [2]; library: LOPAC	inactive: 1
